# According to PubChem BioAssay AID1259415 (National Center for Advancing Translational Sciences (NCATS), 2018):
# About 18,000 (4.4%) of roughly 410,000 compounds were called active. The inconclusive results got no clear call from the source; some entries with a clear call stand among them for comparison. Cut-off read from the data, not from the text of the source: active = activity change below about -60%; inconclusive = no clear call, values can overlap the other calls; inactive = above about -39%.
# Assay: qHTS Assay for inhibitors of the human cytomegalovirus (HCMV)
# Conditions: HFF cells, HCMV-luciferase reporter, 72 h; at 57.5 µM; hits give low values
# In short: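 Luciferase read-out from HCMV-luciferase-infected HFFs (MOI 1 PFU/cell) 72 h post infection at 37C; compounds added after 16 h cell attachment; activity normalized between buffer-only basal and Salinomycin (10uM) inhibitor controls.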
# % is set by controls: 0 for no effect and ±100 for the full control effect.
row,Compound,"activity change, negative = inhibition"
1,CN(C(=O)c1ccc(NC(=O)C2CCN(C(=O)OC(C)(C)C)CC2)cc1)C1CCC1,inactive: -4.05%
2,O=C(CSc1ccc2ccccc2n1)N/N=C/c1ccccc1O,active: -99.6%
3,O=C1c2ccccc2S(=O)(=O)c2cc(N3CCC(C(=O)N4CCCCC4)CC3)ccc21,inactive: 81.2%
4,O=C(c1cc(-c2cccs2)on1)N1CCN(c2ccc(F)cc2)CC1,inconclusive: -53.8%
5,Cc1ccccc1CN(c1ccc(C(=O)N2CCc3ccccc3C2)cc1)S(C)(=O)=O,inconclusive: -41.2%
6,O=c1oc2ccc3ccccc3c2cc1-c1nnc(Nc2cccc(F)c2)s1,inconclusive: -45.3%
7,C[C@@H]1[C@@H](Sc2ccccc2)CC(=O)O[C@@H]1c1ccc(-c2ccccc2)cc1,inconclusive: -59.8%
8,CCOC(=O)Cc1csc(NC(=S)NC(=O)c2ccccc2C)n1,inconclusive: -51.2%
9,Cc1cccc(C)c1Nc1c(-c2ccccc2O)nc2ncccn12,inconclusive: -42.3%
10,Cn1c(=O)c2cc(S(=O)(=O)Nc3ccc4c(c3)OCO4)ccc2n(C)c1=O,inconclusive: -55.7%
11,COC(=O)c1ccc(NC(=O)c2c(NCc3ccc(OC)c(OC)c3)sc3c2CCCC3)cc1,active: -66.8%
12,CCC(=O)c1ccc(N2CCN(C(=O)COc3ccc(F)cc3)CC2)c(F)c1,inactive: -27.8%
13,O=C(CSc1nc2cc([N+](=O)[O-])ccc2n1-c1ccccc1)NCc1ccc2c(c1)OCO2,inconclusive: -53.4%
14,COc1ccccc1N(CC(=O)NCCc1ccccc1)C(=O)CCC(=O)Nc1ccccn1,inconclusive: -43.9%
15,CC1(C(=O)Nc2ccc3nc[nH]c3c2)CCN1C(=O)Cc1ccc(-c2ccccc2)cc1 (configuration not stated),inconclusive: -59.3%
16,O=C(CN1CCN(S(=O)(=O)N2CCOCC2)CC1)Nc1ccc(Cl)c(Cl)c1,inconclusive: -48.6%
17,Cc1ccc(S(=O)(=O)N2CCN(c3ccnc4cc(Cl)ccc34)CC2)cc1C,inconclusive: -53.7%
18,COc1ccc2[nH]cc(C(=O)CN3CCN(C4CCCCC4)CC3)c2c1,inconclusive: -46.4%
19,O=C(NCc1ccco1)c1ccc2c(=O)n(-c3ccccc3)c(=S)[nH]c2c1,inconclusive: -55%
20,O=C(CSc1ccc2nnc(-c3ccccn3)n2n1)Nc1ccc(F)cc1F,inconclusive: -46.1%
21,O=C(NCCCN1CCOCC1)C(C(=O)NCCCN1CCOCC1)c1ncc(C(F)(F)F)cc1Cl,inconclusive: -48.4%
22,Cc1cc(C)n(-c2ccc(C(=O)N3CCN(S(=O)(=O)c4ccc(Cl)cc4)CC3)cc2)n1,inactive: -10.6%

# Reprinted at random: two entries already listed, in no set order.
row,Compound,"activity change, negative = inhibition"
16,O=C(CN1CCN(S(=O)(=O)N2CCOCC2)CC1)Nc1ccc(Cl)c(Cl)c1,inconclusive: -48.6%
9,Cc1cccc(C)c1Nc1c(-c2ccccc2O)nc2ncccn12,inconclusive: -42.3%
